{"source": "paper PMC9997069", "about": "(Molecular Pharmaceutics, 2023)", "origin": "cited, not measured here", "system": "BSA", "settings": "cited from earlier work", "note": "Where two headings read alike, the source gives them in different places.", "data": [{"smiles": "C#Cc1cccc(Nc2ncnc3cc(OCCOC)c(OCCOC)cc23)c1", "note": "[Erlotinib]", "values": [{"measurement": "ΔG^0", "setting": "307 K", "value": "–17.26 kJ mol^–1"}, {"measurement": "ΔH^0", "value": "–260.80 kJ mol^–1"}, {"measurement": "ΔS^0", "value": "–793.31 J K^–1 mol^–1"}]}, {"smiles": "Cc1ccc(F)c(NC(=O)Nc2ccc(-c3cccc4[nH]nc(N)c34)cc2)c1", "note": "[Linifanib]", "values": [{"measurement": "ΔG^0", "setting": "308 K", "value": "–21.49 kJ mol^–1"}, {"measurement": "ΔH^0", "value": "–55.91 kJ mol^–1"}, {"measurement": "ΔS^0", "value": "–111.74 J K^–1 mol^–1"}]}, {"smiles": "C[C@@H](Oc1cc(-c2cnn(C3CCNCC3)c2)cnc1N)c1c(Cl)ccc(F)c1Cl", "note": "[Crizotinib]", "values": [{"measurement": "ΔG^0", "setting": "309 K", "value": "–26.83 kJ mol^–1"}, {"measurement": "ΔH^0", "value": "–3.23 kJ mol^–1"}, {"measurement": "ΔS^0", "value": 76.37, "unit": "J K^–1 mol^–1"}]}]}
